Experimental data: PubChem BioAssay AID1671190 (National Center for Advancing Translational Sciences (NCATS), 2021)
About 6,100 (1.1%) of roughly 580,000 compounds were called active. Inconclusive results, whose numbers are uncertain, are shown with a selection of clear calls. Calls come from the whole dose curve; as a rule, active = well fitted inhibition curve with a large enough effect; inconclusive = small, poorly fitted or top-dose-only effect, or another doubt; inactive = no such curve, though single readings can be large or run the other way. Where the call is inconclusive, the potency comes from a doubtful curve fit.

Chains of the proteins cited; added tags and fusions are not shown. Lines headed by an entry give the natural chain unless they say otherwise; changes in a name come on top.
UniProt P18054: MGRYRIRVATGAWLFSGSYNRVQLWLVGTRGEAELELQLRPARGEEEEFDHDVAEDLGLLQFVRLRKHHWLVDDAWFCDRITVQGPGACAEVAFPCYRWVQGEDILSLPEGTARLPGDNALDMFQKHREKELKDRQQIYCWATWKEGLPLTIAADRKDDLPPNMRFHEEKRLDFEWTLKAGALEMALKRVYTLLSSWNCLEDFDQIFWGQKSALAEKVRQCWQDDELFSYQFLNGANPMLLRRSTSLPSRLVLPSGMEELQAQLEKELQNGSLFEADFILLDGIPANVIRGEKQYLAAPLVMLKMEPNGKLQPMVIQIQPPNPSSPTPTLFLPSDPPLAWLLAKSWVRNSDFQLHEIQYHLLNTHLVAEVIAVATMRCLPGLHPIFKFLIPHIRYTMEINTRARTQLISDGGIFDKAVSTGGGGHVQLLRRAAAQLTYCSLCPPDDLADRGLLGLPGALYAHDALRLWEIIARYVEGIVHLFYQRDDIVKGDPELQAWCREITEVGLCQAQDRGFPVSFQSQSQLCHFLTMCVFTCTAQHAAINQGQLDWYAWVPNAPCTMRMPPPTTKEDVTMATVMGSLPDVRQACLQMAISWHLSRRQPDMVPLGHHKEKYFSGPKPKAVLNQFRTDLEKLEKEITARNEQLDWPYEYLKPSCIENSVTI

What follows are compounds tested against Polyunsaturated fatty acid lipoxygenase ALOX12 (Homo sapiens) (UniProt P18054) (assay: Primary qHTS assay for inhibitors of human arachidonate 12S-lipoxygenase (ALOX12): Round 2). Settings: purified 12hLO, xylenol orange hydroperoxide absorbance; series mostly up to 108 µM.
How it was run: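 Hydroperoxide product was detected by ferrous iron/xylenol orange as the 573 to 405 nm absorbance ratio. Arachidonic acid at 40 uM (final) was turned over for 30 min at room temperature by 150 nM human 12hLO, pH 7.0 Hepes buffer, after 15 min compound preincubation.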
Potency is the fitted concentration of half-maximal effect.

SMILES	Potency
Cc1nc2c(c(-c3ccc(O)cc3)n1)CN(C(=O)c1ccc(Cl)nc1)CCC2	inactive
CCOC(=O)N1CCC(Nc2c(-c3ccccc3)c(=O)c2=O)CC1	inactive
O=C(CCc1ccccc1)N1CCN(C(=O)CCc2ccccc2)CC1	inactive
O=C(CCC(=O)c1cccs1)NCC(c1ccc(F)cc1)N1CCOCC1 (configuration not stated)	inconclusive: 112 µM [inhibitor, single point]
Cc1nc2ccc(Cl)cc2cc1C(=O)NCc1cccnc1-n1cncn1	inactive
COCCCn1c(Cc2c(F)cccc2Cl)n[nH]c1=S	inconclusive: 100 µM [inhibitor, single point]
N#Cc1c(-c2ccccc2)ccn(Cc2cccc(Cl)c2)c1=O	inconclusive: 7.94 µM [inhibitor, single point]
CC[C@]1(C(=O)OC)[C@H]2C(=O)N(C)C(=O)[C@H]2[C@H]2CN=C(SCC3CC3)N21	inconclusive: 126 µM [inhibitor, single point]
CN(C)CCNc1oc(/C=C/c2cccs2)nc1C#N	inactive
COc1cc(F)ccc1-c1ccnc2nc(C3CCCO3)nn12 (configuration not stated)	inactive
NC(=O)c1ccc(CNc2cnc3ccccc3n2)cc1	inconclusive: 0.316 µM [inhibitor, full curve, poor fit]
O=C(NCC1CCCO1)c1ccccc1-c1nc(-c2ccccc2F)no1 (configuration not stated)	inactive
O=S(=O)(c1ccc(Cl)cc1)c1nc(-c2ccco2)oc1N1CCOCC1	inconclusive: 126 µM [inhibitor, single point]
CCCCNC(=S)Nc1ccc(Cl)cc1Cl	inconclusive: 56.2 µM [inhibitor, partial curve, poor fit]
Oc1ccc(/C=N/Nc2cc(N3CCOCC3)nc(N3CCOCC3)n2)cc1	inconclusive: 35.5 µM [inhibitor, single point]
CC(=O)Nc1ccccc1OC(C)C(=O)NC(C)c1ccc(F)cc1 (configuration not stated)	inactive
S=C(Nc1ccc(Cl)c(Cl)c1)NC1CC1	inconclusive: 44.7 µM [inhibitor, partial curve, poor fit]
O=C(c1cccc(Cl)c1)N1CCC(=O)N([C@H](COCc2cccc(Cl)c2)Cc2ccccc2)CC1	inconclusive: 79.4 µM [inhibitor, partial curve, poor fit]
Cc1ccc(S(=O)(=O)N2C[C@H]3N(C(=O)OC(C)C)N(C(=O)OC(C)C)C[C@H](OC(=O)NC4CC4)[C@@]3(O)C2)cc1	inconclusive: 3.55 µM [inhibitor, full curve, poor fit]
N#Cc1ccc(CNC(=O)[C@@H]2Cc3nc[nH]c3CN2C(=O)CCC(=O)O)cc1	inconclusive: 11.2 µM [inhibitor, full curve, poor fit]
CN(Cc1ccccc1F)C(=O)c1ccc(Oc2ccccc2)cc1	inconclusive: 28.2 µM [inhibitor, single point]
O=S(=O)(NCc1ccc(F)cc1)c1ccc(-n2cccn2)cc1	inconclusive: 4.47 µM [inhibitor, full curve, poor fit]
O=S(=O)(c1cccs1)N1CCN(CC(O)COC2CCCc3ccccc32)CC1 (configuration not stated)	inconclusive: 0.398 µM [inhibitor, full curve, poor fit]

SMILES	Potency
Cc1cc(C)n2c(Nc3ccc4c(c3)OCCO4)c(-c3cc4ccccc4o3)nc2n1	inconclusive: 4.47 µM [inhibitor, full curve, poor fit]
N#CC1(NC(=O)COC(=O)Cc2n[nH]c(=O)c3ccccc23)CCCCC1	inactive
Cc1ccc(C)c(OCC(O)Cn2nc(-c3ccco3)oc2=O)c1C (configuration not stated)	inactive
Cc1ccc(C)c(OCCn2c(=O)c3c(ncn3C3CCCC3)n(Cc3ccccc3)c2=O)c1	inactive
O=C(Nc1cc(F)cc(F)c1)C1CCN(C(=O)c2ncn3c2COC(c2ccc(F)cc2)C3)CC1 (configuration not stated)	inactive
O=C(Nc1cccc(Cl)c1)C1CN(c2cccc(Cl)c2)C(=O)N1 (configuration not stated)	inconclusive: 39.8 µM [inhibitor, partial curve]
COc1ccccc1N1CCN(CC(=O)Nc2ncc3c(n2)CC(C)CC3=O)CC1 (configuration not stated)	inconclusive: 141 µM [inhibitor, single point]
Cn1c(=O)c2c(ncn2CC(=O)Nc2ccc3c(c2)CCC3)n(C)c1=O	inactive
O=C(/C=N/O)Nc1cccnc1	inconclusive: 44.7 µM [inhibitor, partial curve, poor fit]
O=C(c1ccc([N+](=O)[O-])cc1)n1nc(-c2ccccc2)nc1NCc1ccccc1	inconclusive: 89.1 µM [inhibitor, single point]
COc1cc(OC)c2c(C)c(CC(=O)NCCc3ccccc3F)c(=O)oc2c1	inconclusive: 79.4 µM [inhibitor, single point]
CC(C)NC(=O)N1CCCC1c1nnc2n1CCNC2 (configuration not stated)	inconclusive: 3.16 µM [inhibitor, single point]
O=C(COC(=O)c1ccc2ccccc2n1)NC(=O)c1ccccc1	inconclusive: 44.7 µM [inhibitor, partial curve, poor fit]
S=C(NCCN1CCOCC1)Nc1ccc(Cl)c(Cl)c1	inconclusive: 56.2 µM [inhibitor, single point]
Cc1ccccc1C1c2[nH]c3ccccc3c2CCN1C(=O)c1ccc(=O)n(C)n1 (configuration not stated)	inactive
CCC(C)(C)c1ccc(OCCCC[n+]2cccc(C)c2)c(C(C)(C)CC)c1	inconclusive: 44.7 µM [inhibitor, partial curve]
Cc1nc2ccc3nc(NC(=O)C4COc5ccccc5O4)sc3c2s1 (configuration not stated)	inconclusive: 100 µM [inhibitor, single point]
CN(C)N1C(=O)CC(N2CCCC2)C1=O (configuration not stated)	inconclusive: 63.1 µM [inhibitor, partial curve, poor fit]
CCOc1ccc2nc(NC(=O)CSc3nc4ccccc4c(=O)n3Cc3ccco3)sc2c1	inactive
COC(=O)c1c(C)[nH]c(O)c1C=Nc1ccc(Oc2ccccc2)cc1	inactive
Cc1cc(Br)ccc1SCC(=O)OCC(=O)NC(C)c1ccccc1 (configuration not stated)	inconclusive: 79.4 µM [inhibitor, partial curve, poor fit]
Cc1ccc(S(=O)(=O)N2CCN(c3nc(-c4cccnc4)nc4ccccc34)CC2)cc1	inconclusive: 112 µM [inhibitor, single point]
CCCCCC(=O)Nc1nc(C)c(-c2csc(Nc3ccc(Cl)cc3)n2)s1	inconclusive: 50.1 µM [inhibitor, partial curve, poor fit]

SMILES	Potency
O=C(CCc1ncc(-c2ccc(F)cc2)o1)NCc1ccc(OC(F)F)cc1	inconclusive: 112 µM [inhibitor, single point]
CNC(=O)NC[C@H]1CCN(Cc2ccc(C#N)cc2)C[C@H]1N(C)C	inactive
Cc1ccc(S(=O)(=O)N2C(=O)[C@@H]3Cc4ccccc4CN3C2=O)cc1	inconclusive: 39.8 µM [inhibitor, partial curve]
S=C(NCCc1ccccc1)NCc1ccc(Cl)cc1	inconclusive: 12.6 µM [inhibitor, partial curve, poor fit]
CN1CCN(S(=O)(=O)c2ccc(NC(=O)c3ccccc3Oc3ccccc3)cc2)CC1	inconclusive: 39.8 µM [inhibitor, partial curve, poor fit]
Cc1cccc(NC(=O)CSc2nccn2Cc2ccco2)c1	inconclusive: 89.1 µM [inhibitor, single point]
CCOc1ccc(C(c2c(NC(=O)c3ccccc3)sc(C)c2C)N2CCN(C)CC2)cc1 (configuration not stated)	inconclusive: 50.1 µM [inhibitor, partial curve, poor fit]
O=C(/C=C/c1ccccc1)O/N=C1\CCCc2oc3c(c21)CCCC3	inconclusive: 50.1 µM [inhibitor, partial curve, poor fit]
Cc1ccc(S(=O)(=O)NCCNc2ccccc2[N+](=O)[O-])cc1	inconclusive: 100 µM [inhibitor, partial curve, poor fit]
Clc1ccc(/C=C/c2ncc[nH]2)c(Cl)c1	inconclusive: 89.1 µM [inhibitor, single point]
Cc1ccc(NC(=O)CN(C)C(=O)C(Sc2ccccc2)c2ccccc2)cc1 (configuration not stated)	inactive
CCOC(=O)C(NC(=O)Cc1coc2c(C)c(C)ccc12)C(=O)OCC	inconclusive: 39.8 µM [inhibitor, partial curve, poor fit]
O=C(CN1CCC2(CC1)OCCO2)Nc1cc(Cl)ccc1Cl	inactive
CS(=O)(=O)c1ccc(Cl)c(NC(=O)c2cc(=O)[nH]c3ccc(S(=O)(=O)N4CCOCC4)cc23)c1	inconclusive: 56.2 µM [inhibitor, partial curve, poor fit]
C/C(=N\NC(=O)c1ccccc1)c1ccc2c3c(cccc13)CC2	inactive
CN(C)S(=O)(=O)c1ccc2nnn(OCC(=O)NC3CCS(=O)(=O)C3)c2c1 (configuration not stated)	inactive
O=C(Nc1ccccc1Cl)C1CCCN(c2ncnc3c2nc2n3CCCCC2)C1 (configuration not stated)	inactive
CCOc1ccc(C(O)Cn2ccn3nc(-c4ccccc4C)cc3c2=O)cc1 (configuration not stated)	inconclusive: 56.2 µM [inhibitor, partial curve, poor fit]
COc1ccc(NC(=O)COc2ccccc2C(=O)NCC(c2ccccc2)N(C)C)cc1Cl (configuration not stated)	inconclusive: 89.1 µM [inhibitor, partial curve, poor fit]
CCOc1cc(-c2cc(-c3ccc(C)o3)nc(N)c2C#N)ccc1O	inconclusive: 3.16 µM [inhibitor, full curve]
O=S(Cc1ccc(Br)cc1)Cc1nnc(SCc2ccc(Cl)cc2)n1-c1ccccc1 (configuration not stated)	inconclusive: 50.1 µM [inhibitor, partial curve, poor fit]

Nothing new here: an excerpt of the list.
SMILES	Potency
CCOC(=O)C(NC(=O)Cc1coc2c(C)c(C)ccc12)C(=O)OCC	inconclusive: 39.8 µM [inhibitor, partial curve, poor fit]
O=C(CN1CCC2(CC1)OCCO2)Nc1cc(Cl)ccc1Cl	inactive
CS(=O)(=O)c1ccc(Cl)c(NC(=O)c2cc(=O)[nH]c3ccc(S(=O)(=O)N4CCOCC4)cc23)c1	inconclusive: 56.2 µM [inhibitor, partial curve, poor fit]
